Measured values taken from PubChem BioAssay AID270 (DTP/NCI, 2004).
The list is a part of this screen's results and no random one: it gathers tests that were run many times, whatever their T/C, doses with no T/C, and many T/C values between a quarter and a half above the control. Further doses and runs are listed elsewhere. T/C is the treated group as % of the vehicle group. Some doses have a count of surviving animals in place of a T/C: the source holds a T/C of zero for them, seemingly a mark for toxic or unscored doses. Some doses without a T/C left all or most animals alive at the check, yet need not have been tolerated: survival well below the control is almost never listed, so the zero probably covers shortened survival too. Survivors were counted at the toxicity check, usually on the fifth day, unless a day is given; later deaths do not show. Schedule codes are those of the source, read here as Q, the interval in days (D) or hours (H), X, the number of doses. Some entries hold several experiments; their values stand side by side, smallest first. Where survival is the endpoint, the PubChem record calls one and a half times the control and up active, and a quarter to a half above the control has no call in these data; cut-offs in other NCI protocols can differ.

Tested on: BDF1 mice, s.c. Lewis lung carcinoma, T/C %
Experiment: NCI In Vivo Anticancer Drug Screen. Data for tumor model Lewis Lung Carcinoma (subcutaneous) in B6D2F1 (BDF1) mice
Procedure, shortened: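 The value reflects a ratio in which the treated cohort's survival time or tumour size is compared against mice receiving only vehicle.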

[1] = T/C endpoint: median survival time, dose: 0.25 mg/kg/injection, schedule: Q01DX009 (ip), vehicle: saline, higher T/C = longer survival
[2] = T/C endpoint: median survival time, dose: 0.5 mg/kg/injection, schedule: Q01DX009 (ip), vehicle: saline, higher T/C = longer survival
[3] = T/C endpoint: median survival time, dose: 1.0 mg/kg/injection, schedule: Q01DX009 (ip), vehicle: saline, higher T/C = longer survival
[4] = T/C endpoint: median survival time, dose: 30.0 mg/kg/injection, schedule: Q01DX009 (ip), vehicle: saline with Tween-80, higher T/C = longer survival

**Q.** With `CSCS(=O)C[C@H](CO)NC(=O)/C=C/c1c(C)[nH]c(=O)[nH]c1=O` (some centres not stated) as the molecule, how does the survivor count (T/C endpoint: median survival time, dose: 0.6 mg/kg/injection, schedule: Q01DX009 (ip), vehicle: water, higher T/C = longer survival) read?
**A.** 10 of 10

**Q.** What about the survivor count (T/C endpoint: median survival time, dose: 1.2 mg/kg/injection, schedule: Q01DX009 (ip), vehicle: water, higher T/C = longer survival) of the same molecule?
**A.** 1 of 10

**Q.** `CC[C@]1(O)C[C@H]2CN(CCc3c([nH]c4ccccc34)[C@@](C(=O)OC)(c3cc4c(cc3OC)N(C=O)[C@H]3[C@@](O)(C(=O)OC)[C@H](OC(C)=O)[C@]5(CC)C=CCN6CC[C@]43[C@@H]65)C2)C1` was tested. Which T/C [1] did it give?
**A.** 131 % of control

**Q.** And the survivor count [2]?
**A.** 10 of 10

**Q.** What about the survivor count [3] of the same molecule?
**A.** 7 of 10 and 10 of 10

**Q.** What about the T/C (T/C endpoint: median survival time, dose: 250.0 micrograms/kg/injection, schedule: Q01DX009 (ip), vehicle: saline, higher T/C = longer survival) of the same molecule?
**A.** 136 % of control

**Q.** And the survivor count (T/C endpoint: median survival time, dose: 500.0 micrograms/kg/injection, schedule: Q01DX009 (ip), vehicle: saline, higher T/C = longer survival)?
**A.** 10 of 10

**Q.** And the survivor count (T/C endpoint: median survival time, dose: 1000.0 micrograms/kg/injection, schedule: Q01DX009 (ip), vehicle: saline, higher T/C = longer survival)?
**A.** 10 of 10

**Q.** What about the survivor count (T/C endpoint: median tumor weight (est.), dose: 1000.0 micrograms/kg/injection, schedule: Q01DX009 (ip), vehicle: saline, higher T/C = larger tumour) of the same molecule?
**A.** 1 of 10

**Q.** For `O=NN(CCCl)C(=O)NC1CCS(=O)(=O)C1` (configuration not stated) (tested in a mixture with another compound), which T/C (T/C endpoint: median survival time, dose: 13.0 mg/kg/injection, schedule: Q01DX001 (ip), vehicle: saline with Tween-80, higher T/C = longer survival) is on record?
**A.** 148 % of control

**Q.** What about the survivor count (T/C endpoint: median survival time, dose: 13.0 mg/kg/injection, schedule: Q01DX009 (ip), vehicle: saline with Tween-80, higher T/C = longer survival) of the same molecule?
**A.** 10 of 10

**Q.** And the T/C (T/C endpoint: median survival time, dose: 20.0 mg/kg/injection, schedule: Q01DX001 (ip), vehicle: saline with Tween-80, higher T/C = longer survival)?
**A.** 144 % of control

**Q.** What about the survivor count (T/C endpoint: median survival time, dose: 20.0 mg/kg/injection, schedule: Q01DX009 (ip), vehicle: saline with Tween-80, higher T/C = longer survival) of the same molecule?
**A.** 10 of 10

**Q.** What about the survivor count [4] of the same molecule?
**A.** 8 of 10 and 10 of 10

**Q.** And the survivor count (T/C endpoint: median survival time, dose: 44.0 mg/kg/injection, schedule: Q01DX001 (ip), vehicle: saline with Tween-80, higher T/C = longer survival)?
**A.** 9 of 10

**Q.** What about the survivor count (T/C endpoint: median survival time, dose: 44.0 mg/kg/injection, schedule: Q01DX009 (ip), vehicle: saline with Tween-80, higher T/C = longer survival) of the same molecule?
**A.** 5 of 10 and 8 of 10

**Q.** And the survivor count (T/C endpoint: median survival time, dose: 67.0 mg/kg/injection, schedule: Q01DX001 (ip), vehicle: saline with Tween-80, higher T/C = longer survival)?
**A.** 9 of 10

**Q.** And the survivor count (T/C endpoint: median survival time, dose: 67.0 mg/kg/injection, schedule: Q01DX009 (ip), vehicle: saline with Tween-80, higher T/C = longer survival)?
**A.** 3 of 10

**Q.** For `O=S(=O)(c1ccc(NC(=S)N/N=C/c2ccccc2O)cc1)N1CCCCC1`, which survivor count (T/C endpoint: median survival time, dose: 100.0 mg/kg/injection, schedule: Q01DX009 (ip), vehicle: olive oil, sesame oil, peanut oil, higher T/C = longer survival) is on record?
**A.** 10 of 10

**Q.** What about the survivor count (T/C endpoint: median survival time, dose: 400.0 mg/kg/injection, schedule: Q01DX009 (ip), vehicle: olive oil, sesame oil, peanut oil, higher T/C = longer survival) of the same molecule?
**A.** 10 of 10

**Q.** With `C1CC[N-]CC1.C1CC[N-]CC1.C1CC[N-]CC1.C1CC[N-]CC1.[Cl][Co][Cl]` as the molecule, how does the survivor count (T/C endpoint: mean tumor weight, dose: 120.0 mg/kg/injection, schedule: Q01DX011 (ip), vehicle: other, higher T/C = larger tumour) read?
**A.** 2 of 6

**Q.** What about the survivor count (T/C endpoint: median survival time, dose: 5.0 mg/kg/injection, schedule: Q01DX009 (ip), vehicle: saline, higher T/C = longer survival) of the same molecule?
**A.** 10 of 10

**Q.** And the survivor count (T/C endpoint: median survival time, dose: 37.5 mg/kg/injection, schedule: Q01DX009 (ip), vehicle: saline with Tween-80, higher T/C = longer survival)?
**A.** 9 of 10

**Q.** And the survivor count (T/C endpoint: median survival time, dose: 75.0 mg/kg/injection, schedule: Q01DX009 (ip), vehicle: saline with Tween-80, higher T/C = longer survival)?
**A.** 5 of 10

**Q.** What about the survivor count (T/C endpoint: median survival time, dose: 150.0 mg/kg/injection, schedule: Q01DX009 (ip), vehicle: saline with Tween-80, higher T/C = longer survival) of the same molecule?
**A.** 0 of 10

**Q.** And the survivor count (T/C endpoint: median survival time, dose: 300.0 mg/kg/injection, schedule: Q01DX009 (ip), vehicle: saline with Tween-80, higher T/C = longer survival)?
**A.** 0 of 10

**Q.** How did the survivor count (T/C endpoint: median survival time, dose: 4.0 mg/kg/injection, schedule: Q01DX009 (ip), vehicle: saline, higher T/C = longer survival) turn out when `CCCCCCCCCCCC(c1ccccc1)[N+](C)(C)C` (configuration not stated) was run?
**A.** 10 of 10

**Q.** And the survivor count (T/C endpoint: median survival time, dose: 8.0 mg/kg/injection, schedule: Q01DX009 (ip), vehicle: saline, higher T/C = longer survival)?
**A.** 6 of 10

**Q.** Which survivor count (T/C endpoint: mean tumor weight, dose: 20.0 mg/kg/injection, schedule: Q01DX011 (ip), vehicle: saline, higher T/C = larger tumour) does the source give for `CCOC(=O)NP(=O)(N1CC1)N1CC1` here?
**A.** 0 of 6 and 1 of 6

**Q.** With `CCOC(=O)C(C)(C)Br` as the molecule, how does the survivor count (T/C endpoint: mean tumor weight, dose: 1000.0 mg/kg/injection, schedule: Q01DX011 (ip), vehicle: other, higher T/C = larger tumour) read?
**A.** 0 of 6

**Q.** What does the source list for `COC(C(=O)C(O)C(C)O)C1Cc2cc3cc(OC4CC(OC5CC(O)C(O)C(C)O5)C(O)C(C)O4)c(C)c(O)c3c(O)c2C(=O)C1OC1CC(OC2CC(O)C(OC3CC(C)(O)C(O)C(C)O3)C(C)O2)C(O)C(C)O1` (configuration not stated)?
**A.** T/C [1]: 125 % of control; survivor count [2]: 9 of 10; survivor count [3]: 5 of 10 and 8 of 10; survivor count (T/C endpoint: median survival time, dose: 2.0 mg/kg/injection, schedule: Q01DX009 (ip), vehicle: saline, higher T/C = longer survival): 0 of 10

**Q.** How did the survivor count (T/C endpoint: median survival time, dose: 21.0 mg/kg/injection, schedule: Q01DX001 (ip), vehicle: Klucel (hydroxypropylcellulose) (HPC), higher T/C = longer survival) turn out when `O=NN(CCCl)C(=O)N[C@H]1CCC[C@@H](C(=O)O)C1` was run?
**A.** 10 of 10 on day 11

**Q.** And the survivor count (T/C endpoint: median survival time, dose: 48.0 mg/kg/injection, schedule: Q01DX001 (ip), vehicle: Klucel (hydroxypropylcellulose) (HPC), higher T/C = longer survival)?
**A.** 10 of 10 on day 11

**Q.** What about the survivor count (T/C endpoint: median survival time, dose: 72.0 mg/kg/injection, schedule: Q01DX001 (ip), vehicle: Klucel (hydroxypropylcellulose) (HPC), higher T/C = longer survival) of the same molecule?
**A.** 10 of 10 on day 11

**Q.** `Nc1ccccc1N` was tested. Which survivor count (T/C endpoint: median survival time, dose: 400.0 mg/kg/injection, schedule: Q02DX009 (ip), vehicle: saline with Tween-80, higher T/C = longer survival) did it give?
**A.** 1 of 10

**Q.** For `Cc1cc(CCl)c(C)c(Br)c1C`, which T/C (T/C endpoint: median survival time, dose: 0.75 mg/kg/injection, schedule: Q01DX009 (ip), vehicle: Klucel (hydroxypropylcellulose) (HPC), higher T/C = longer survival) is on record?
**A.** 126 % of control

**Q.** For `C[C@]12CC[C@H](O)C[C@@]1(O)CC[C@@H]1[C@@H]2CC[C@]2(C)[C@@H](c3ccc(=O)oc3)CC[C@]12O`, which survivor count (T/C endpoint: median survival time, dose: 5.0 mg/kg/injection, schedule: Q01DX009 (ip), vehicle: Klucel (hydroxypropylcellulose) (HPC), higher T/C = longer survival) is on record?
**A.** 10 of 10

**Q.** Which results are given for `COc1cccc(/C=C/[N+](=O)[O-])c1`?
**A.** survivor count [4]: 8 of 10; survivor count (T/C endpoint: median survival time, dose: 45.0 mg/kg/injection, schedule: Q01DX009 (ip), vehicle: saline with Tween-80, higher T/C = longer survival): 8 of 10; survivor count (T/C endpoint: median survival time, dose: 60.0 mg/kg/injection, schedule: Q01DX009 (ip), vehicle: saline with Tween-80, higher T/C = longer survival): 9 of 10

**Q.** For `COc1ccc(CC2C(=O)NC(C)C(=O)N(C)C3Cc4ccc(cc4)Oc4cc(ccc4O)CC(C(=O)NC(C)C(=O)NC(C)C(=O)N2C)N(C)C3=O)cc1` (configuration not stated), which T/C [1] is on record?
**A.** 128 % of control

**Q.** And the T/C [2]?
**A.** 126 % of control

**Q.** Which results are given for `CCC1(O)CC(OC2CC(N(C)C)C(OC3CC(O)C(OC4CCC(=O)C(C)O4)C(C)O3)C(C)O2)c2c(cc3c(c2O)C(=O)c2c(O)ccc(O)c2C3=O)C1C(=O)OC` (configuration not stated)?
**A.** T/C (T/C endpoint: median survival time, dose: 0.47 mg/kg/injection, schedule: Q01DX009 (ip), vehicle: saline with Tween-80, higher T/C = longer survival): 126 % of control; T/C (T/C endpoint: median survival time, dose: 0.95 mg/kg/injection, schedule: Q01DX009 (ip), vehicle: saline with Tween-80, higher T/C = longer survival): 138 % of control; survivor count (T/C endpoint: median survival time, dose: 1.9 mg/kg/injection, schedule: Q01DX009 (ip), vehicle: saline with Tween-80, higher T/C = longer survival): 10 of 10; survivor count (T/C endpoint: median survival time, dose: 3.75 mg/kg/injection, schedule: Q01DX009 (ip), vehicle: saline with Tween-80, higher T/C = longer survival): 8 of 10; survivor count (T/C endpoint: median survival time, dose: 7.5 mg/kg/injection, schedule: Q01DX009 (ip), vehicle: saline with Tween-80, higher T/C = longer survival): 7 of 10; survivor count (T/C endpoint: median survival time, dose: 15.0 mg/kg/injection, schedule: Q01DX009 (ip), vehicle: saline with Tween-80, higher T/C = longer survival): 0 of 10

**Q.** With `SCc1ccccn1` as the molecule, how does the survivor count (T/C endpoint: mean tumor weight, dose: 300.0 mg/kg/injection, schedule: Q01DX011 (ip), vehicle: carboxymethylcellulose (CMC), higher T/C = larger tumour) read?
**A.** 2 of 6
